Measured values taken from PubChem BioAssay AID1794845 (National Center for Advancing Translational Sciences (NCATS), 2023).
Screen size: about 6,900 compounds; fewer than 10 were called active. The call rests on the fitted dose curve; in most records, active means well fitted curve in the direction sought with a large enough effect; inconclusive means small, poorly fitted or top-dose-only effect, or another doubt; inactive means no such curve, though single readings can be large or run the other way. This is one part of the list.

Amino acid sequences for entries named in this document (tags omitted). A change or cut given only in a name is not applied to a line headed by its entry.
UniProt C7C422: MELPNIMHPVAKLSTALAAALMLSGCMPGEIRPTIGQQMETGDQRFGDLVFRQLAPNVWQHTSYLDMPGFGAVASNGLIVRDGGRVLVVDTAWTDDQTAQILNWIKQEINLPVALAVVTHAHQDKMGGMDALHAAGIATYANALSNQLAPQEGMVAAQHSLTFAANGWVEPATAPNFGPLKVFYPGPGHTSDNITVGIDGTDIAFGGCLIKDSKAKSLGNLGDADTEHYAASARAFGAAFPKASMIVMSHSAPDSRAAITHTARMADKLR

Target: Metallo-beta-lactamase type 2 (Klebsiella pneumoniae) (UniProt C7C422)
Experiment: qHTS to identify inhibitors of the New Delhi Metallo-beta-lactamase (NDM): primary screen against the NCATS Gemini Collection; further: % of control where 0% means no effect
Conditions: NDM-1 enzyme, meropenem hydrolysis, absorbance 300 nm; at 38.4 µM (top of the series) unless noted
Outline: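 Meropenem hydrolysis (50 uM final) by 2 nM NDM-1 read as 300 nm absorbance after 30 min, following >30 min compound–enzyme preincubation in HEPES pH 7.0 with 1 uM ZnSO4 and 0.01% Tween20.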

Activity % (negative = inhibition), inactive:
O=C(c1ccc(Cl)cc1)N1CCC(N2CCOC2=O)CC1 -0.15%
CCN(CC)C(=O)C[C@@H]1CCNC[C@@H]1Cc1cc(-c2ccccn2)on1 3.85% [at 57.5 µM]
CCCc1nnc(NC(=O)C2CC(=O)N(c3n[nH]c4cc(Br)ccc34)C2)s1 (stereo not drawn) 0.258%
CCN(CCn1cccn1)Cc1ccccc1OCC(O)CN1CCCCC1 (stereo not drawn) -6.03%
COC1CCOC2(CCN(C(=O)Cc3ccccc3)CC2)C1 (stereo not drawn) -13.9%
Cc1ccc(CNC(=O)N2CCCCCNC(=O)[C@@H]3CCC[C@@H]32)cc1 25.1%
CCCCNC(=O)C1CCc2sc(C(=O)N3CCCCC3)cc2C1 (stereo not drawn) -4.39%
Cc1noc(C)c1[S+](=O)([O-])N1CCc2nc(-c3ccccc3)nc(-c3ccc(Cl)cc3)c2C1 6.08%
C=CCNC(=O)c1cnn2c1CN(C(=O)c1cccnc1)CC2 -0.594%
Cc1cccc(-c2nocc2CCC(=O)NCc2ccc(F)cc2F)c1 -1.01%
Cn1cc(C(=O)N2C[C@@H](C(=O)O)[C@H](c3cccc(F)c3)C2)c(=O)[nH]c1=O -1.87%
Cc1noc(-c2cccs2)c1C(=O)NCc1ccccc1Cl 9.87%
CC(=O)N1CCN2C(=O)N(Cc3ccc(F)cc3)C[C@H]2C1 2.72% [at 77.1 µM]
COc1ccc(CN(C)C(=O)C2(C)CCOCC2)cc1 6.58% [at 57.5 µM]
COc1ccc(C2Cn3nnc(-c4noc(C5CCC5)n4)c3CO2)cc1 (stereo not drawn) 2.55%
Cc1cc(C)n(Cc2ccc(C(=O)N3CCCC(CO)CCNC(=O)CC3)o2)n1 (stereo not drawn) 39.5%
CCN1CCN(CCCN2CC3(CCN(Cc4ncc[nH]4)CC3)OC2=O)CC1 1.16%
CCCCN1C(=O)NC(c2ccc(OC)cc2)C2=C1COC2=O (stereo not drawn) -0.903%
CC(=O)N1CCN(C(=O)c2ccc3nnc(CC4CC4)n3c2)CC1 6.81% [at 57.5 µM]
CS(=O)(=O)N(C1CC1)C1CCOC2(CCN(C(=O)NCc3ccccc3)CC2)C1 (stereo not drawn) -3.97%
COc1ccc(CNC(=O)C[C@@H]2O[C@H](Cn3cc(CN(C)Cc4ccccc4)nn3)[C@@H](O)[C@H]2O)cc1 2.12%
O=C(Cc1ccc(F)cc1)N1CCC2(COc3ccncc3[S+](=O)([O-])N2)C1 (stereo not drawn) 6.5%
CCCS(=O)(=O)N1CC(Oc2ccccc2-c2nc(C3CC3)no2)C1 31.4%
Cn1cc(CN2CCOC[C@H]2c2ncc(C(C)(C)C)[nH]2)c2ccccc21 16.1% [at 57.5 µM]
CCc1cc(N2CCOCC(O)(CN3CCCC3)C2)nc(N2CCCC2)n1 (stereo not drawn) -1.34%
CC(=O)N(C1CC1)C1CCOC2(CCN(C(=O)c3sc(C)nc3C)CC2)C1 (stereo not drawn) -0.752%
COc1ccccc1-c1ccc(C(=O)N2CCC(NC(=O)Nc3ccc(Cl)cc3)CC2)cc1 11.2%
COc1cc(OC)c(C(=O)N2CCC3(CC2)[C@H](O)C[C@@H]3OC)cc1OC 9.19%
CCC1(O)CCC12CCN(C(=O)C1CC1)CC2 (stereo not drawn) -0.104%
CC1=C[C@@H](CC#N)[C@H](C(C)C)C[C@H]1CC(=O)N(C)Cc1cccnc1 1.42% [at 57.5 µM]
Cc1cccc(-c2noc(CCC(=O)N3CCC(C)(c4noc(C)n4)CC3)n2)c1 9.05%
CCn1cc(CN2C[C@@H](CO)[C@H](NC(=O)COC)C2)c2ccccc21 1.47%
O=C(COc1ccccc1)N1CCC2(CC1)OCCN(CCc1ccccc1)C2=O -4.58% [at 57.5 µM]
C[C@]1(CO)[C@H]2Cc3sc(NC(=O)C4CCC4)nc3[C@@H](CC(=O)N3CCCCC3)[C@]2(C)CC[C@H]1O 12.8%
CN(CC[C@H]1CN(C(=O)C(C)(C)C)CC[C@H]1CC(=O)O)c1ccccc1 8.59% [at 57.5 µM]
Cn1cc([C@@H](NC(=O)c2ccc3c(c2)CCCC3)C2CC(O)C2)cn1 (stereo partly drawn) 7.25%
COc1ccccc1CNC(=O)[C@@H]1OCCN(C2CC2)[C@H]1c1ccccc1 0.117%
CCN1CCC(N2CC(Oc3cccc(C(=O)NCC4CC4)c3)C2)CC1 2.31%
COc1cc(-c2nccc3c(=O)cc(N4CCOCC4)oc23)ccn1 80.3% [at 57.5 µM]
Cc1oc(C(O)c2ccccc2)nc1C(=O)Nc1ccc(C(=O)Nc2ccccc2)cc1 (stereo not drawn) 2.77% [at 57.5 µM]
CC(=O)Nc1ccc(NC(=O)c2cccc(CN3CCCC(C#N)C3)c2)cc1 (stereo not drawn) 31.4%
CCCCS(=O)(=O)N[C@@H]1CN(Cc2ccncc2)C[C@H]1CN(C)C 0.381%
CCOCCOC1CCN(C(=O)c2cnccn2)CC1 -2.62%
COc1cccc(N2CCN(C(=O)CCC[C@@H]3[C@H]4CCCN5CCC[C@@H](CN3C)[C@@H]45)CC2)c1 0.833%
NC1CCCCN(C(=O)c2ccc3n[nH]nc3c2)C1 (stereo not drawn) 1.28%
COCC1CN(C)CC12CCN(C(=O)CC1=CCCCC1)CC2 (stereo not drawn) -3.71%
O=C(Cc1cccs1)N1CCN(c2cc(C(F)(F)F)ncn2)CC1 4.27%
COCCN1C(=O)c2cccn2CC1CNS(=O)(=O)c1c(C)noc1C (stereo not drawn) 17.6%
COc1ccc(C[C@H](NC(=O)[C@@]2(O)C[C@@H](O)[C@H](O)[C@@H](NS(=O)(=O)c3cccc(C(F)(F)F)c3)C2)C(N)=O)cc1 25.1%
COCC(=O)N1CC(C(=O)N2CCCCC2)[C@H](c2ccncc2)C1 (stereo partly drawn) 0.277%
COCCN1CC(CO)C2(CCN(C3CCN(C(C)=O)CC3)CC2)C1 (stereo not drawn) 10.7%
O=C(c1ccccc1)N1CCCC2(CC(c3ccccc3)=NO2)C1 (stereo not drawn) -13.7%
CN1CCC(Oc2ncccc2NC(=O)c2ccncc2)C1 (stereo not drawn) 12.3%

Entries above that have a CF3 group:
Activity % (negative = inhibition), inactive:
O=C(Cc1cccs1)N1CCN(c2cc(C(F)(F)F)ncn2)CC1 4.27%
COc1ccc(C[C@H](NC(=O)[C@@]2(O)C[C@@H](O)[C@H](O)[C@@H](NS(=O)(=O)c3cccc(C(F)(F)F)c3)C2)C(N)=O)cc1 25.1%

Two successive entries out of the list so far:
Activity % (negative = inhibition), inactive:
COc1ccccc1CNC(=O)[C@@H]1OCCN(C2CC2)[C@H]1c1ccccc1 0.117%
CCN1CCC(N2CC(Oc3cccc(C(=O)NCC4CC4)c3)C2)CC1 2.31%
